# Experimental data reported in the supplement of paper PMC8728848.
# This is one part of the list.
# Legend:
# Test in all cases: glycan array binding signal (z-score within array); higher = stronger binding
# Conditions in all cases: glycan notation: IUPAC condensed, linker removed
# [1] = target: GlcNAc(b1-3)Gal(b1-4)GlcNAc(b1-3)Gal(b1-4)GlcNAc(b1-3)Gal(b1-4)GlcNAc(b1-3)Gal(b1-4)GlcNAc(b1-2)Man(a1-3)[GlcNAc(b1-3)Gal(b1-4)GlcNAc(b1-3)Gal(b1-4)GlcNAc(b1-3)Gal(b1-4)GlcNAc(b1-3)Gal(b1-4)GlcNAc(b1-2)Man(a1-6)]Man(b1-4)GlcNAc(b1-4)GlcNAc
# How it was run: (§1)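 The binding signal is a Z-score computed within each array. Data were drawn from 3228 arrays in the Consortium for Functional Glycomics database, restricted to those with a known protein sequence. Scores were averaged over arrays of the same protein sequence at different concentrations or buffers, and over linkers, and negative values can be taken as non-binding.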
# [2] = target: GlcNAc(b1-3)Gal(b1-4)GlcNAc(b1-3)Gal(b1-4)GlcNAc(b1-3)Gal(b1-4)GlcNAc(b1-3)Gal(b1-4)GlcNAc(b1-2)Man(a1-3)[GlcNAc(b1-3)Gal(b1-4)GlcNAc(b1-3)Gal(b1-4)GlcNAc(b1-3)Gal(b1-4)GlcNAc(b1-3)Gal(b1-4)GlcNAc(b1-2)Man(a1-6)]Man(b1-4)GlcNAc(b1-4)[Fuc(a1-6)]GlcNAc
# How it was run: as §1
# [3] = target: GlcNAc(b1-3)Gal(b1-4)GlcNAc(b1-3)Gal(b1-4)GlcNAc(b1-3)Gal(b1-4)GlcNAc(b1-3)Gal(b1-4)GlcNAc(b1-2)[GlcNAc(b1-3)Gal(b1-4)GlcNAc(b1-3)Gal(b1-4)GlcNAc(b1-3)Gal(b1-4)GlcNAc(b1-3)Gal(b1-4)GlcNAc(b1-6)]Man(a1-6)[GlcNAc(b1-3)Gal(b1-4)GlcNAc(b1-3)Gal(b1-4)GlcNAc(b1-3)Gal(b1-4)GlcNAc(b1-3)Gal(b1-4)GlcNAc(b1-2)Man(a1-3)]Man(b1-4)GlcNAc(b1-4)[Fuc(a1-6)]GlcNAc
# How it was run: as §1
# [4] = target: GlcNAc(b1-3)Gal(b1-4)GlcNAc(b1-3)Gal(b1-4)GlcNAc(b1-3)GalNAc
# How it was run: as §1
# [5] = target: GlcNAc(b1-3)Gal(b1-4)GlcNAc(b1-3)GalNAc
# How it was run: as §1
# [6] = target: GlcNAc(b1-3)Gal(b1-4)GlcNAc(b1-3)[GlcNAc(b1-3)Gal(b1-4)GlcNAc(b1-3)]GalNAc
# How it was run: as §1
# [7] = target: GlcNAc(b1-3)Gal(b1-4)GlcNAc(b1-6)[Gal(b1-3)]GalNAc
# How it was run: as §1
# [8] = target: GlcNAc(b1-3)Gal(b1-4)GlcNAc(b1-6)[GlcNAc(b1-3)Gal(b1-3)]GalNAc
# How it was run: as §1
# [9] = target: GlcNAc(b1-3)Gal(b1-4)GlcNAc(b1-6)[GlcNAc(b1-3)]Gal(b1-4)GlcNAc
# How it was run: as §1
# [10] = target: GlcNAc(b1-3)GalNAc
# How it was run: as §1
# [11] = target: GlcNAc(b1-3)Man
# How it was run: as §1
# [12] = target: GlcNAc(b1-3)[GlcNAc(b1-4)][GlcNAc(b1-6)]GlcNAc
# How it was run: as §1
# [13] = target: GlcNAc(b1-3)[GlcNAc(b1-6)]Gal(b1-4)GlcNAc
# How it was run: as §1
# [14] = target: GlcNAc(b1-3)[GlcNAc(b1-6)]GalNAc
# How it was run: as §1
# [15] = target: GlcNAc(b1-4)Gal(b1-4)GlcNAc
# How it was run: as §1
# [16] = target: GlcNAc(b1-4)GlcNAc
# How it was run: as §1
# [17] = target: GlcNAc(b1-4)GlcNAc(b1-4)GlcNAc
# How it was run: as §1
# [18] = target: GlcNAc(b1-4)GlcNAc(b1-4)GlcNAc(b1-4)GlcNAc(b1-4)GlcNAc
# How it was run: as §1
# [19] = target: GlcNAc(b1-4)GlcNAc(b1-4)GlcNAc(b1-4)GlcNAc(b1-4)GlcNAc(b1-4)GlcNAc
# How it was run: as §1
# [20] = target: GlcNAc(b1-4)[GlcNAc(b1-6)]GalNAc
# How it was run: as §1
# [21] = target: GlcNAc(b1-6)Gal(b1-4)GlcNAc
# How it was run: as §1
# [22] = target: GlcNAc(b1-6)GalNAc
# How it was run: as §1
# [23] = target: GlcNAc3Prop(b1-4)GlcNAc
# How it was run: as §1
# [24] = target: GlcNAc6S(b1-3)Gal(b1-4)GlcNAc
# How it was run: as §1
# [25] = target: Kdn(a2-3)Gal(b1-3)GalNAc
# How it was run: as §1
# [26] = target: Kdn(a2-3)Gal(b1-3)GlcNAc
# How it was run: as §1
# [27] = target: Kdn(a2-3)Gal(b1-4)Glc
# How it was run: as §1
# [28] = target: Kdn(a2-3)Gal(b1-4)GlcNAc
# How it was run: as §1
# [29] = target: Kdn(a2-3)Gal(b1-4)[Fuc(a1-3)]GlcNAc
# How it was run: as §1
# [30] = target: Kdn(a2-6)Gal(b1-4)GlcNAc
# How it was run: as §1
# [31] = target: Man(a1-2)Man(a1-2)Man(a1-3)Man
# How it was run: as §1
# [32] = target: Man(a1-2)Man(a1-2)Man(a1-6)[Man(a1-3)]Man
# How it was run: as §1
# [33] = target: Man(a1-2)Man(a1-3)Man
# How it was run: as §1
# [34] = target: Man(a1-2)Man(a1-3)[Man(a1-2)Man(a1-6)]Man
# How it was run: as §1
# [35] = target: Man(a1-2)Man(a1-3)[Man(a1-2)Man(a1-6)]Man(a1-6)[Man(a1-2)Man(a1-2)Man(a1-3)]Man
# How it was run: as §1
# [36] = target: Man(a1-2)Man(a1-3)[Man(a1-2)Man(a1-6)]Man(a1-6)[Man(a1-2)Man(a1-2)Man(a1-3)]Man(b1-4)GlcNAc(b1-4)GlcNAc
# How it was run: as §1
# [37] = target: Man(a1-2)Man(a1-3)[Man(a1-6)]Man(a1-6)[Man(a1-2)Man(a1-3)]Man(b1-4)GlcNAc(b1-4)GlcNAc
# How it was run: as §1
# [38] = target: Man(a1-2)Man(a1-6)[Man(a1-3)]Man(a1-6)[Man(a1-2)Man(a1-2)Man(a1-3)]Man
# How it was run: as §1
# [39] = target: Man(a1-2)Man(a1-6)[Man(a1-3)]Man(a1-6)[Man(a1-2)Man(a1-2)Man(a1-3)]Man(b1-4)GlcNAc(b1-4)GlcNAc
# How it was run: as §1
# [40] = target: Man(a1-3)[Man(a1-6)]Man
# How it was run: as §1
# [41] = target: Man(a1-3)[Man(a1-6)]Man(a1-6)[Man(a1-2)Man(a1-3)]Man(b1-4)GlcNAc(b1-4)GlcNAc
# How it was run: as §1
# [42] = target: Man(a1-3)[Man(a1-6)]Man(a1-6)[Man(a1-3)]Man
# How it was run: as §1
# [43] = target: Man(a1-3)[Man(a1-6)]Man(a1-6)[Man(a1-3)]Man(b1-4)GlcNAc(b1-4)GlcNAc
# How it was run: as §1
# [44] = target: Man(a1-3)[Man(a1-6)]Man(b1-4)GlcNAc(b1-4)GlcNAc
# How it was run: as §1
# [45] = target: Man(a1-3)[Man(a1-6)]Man(b1-4)GlcNAc(b1-4)[Fuc(a1-6)]GlcNAc
# How it was run: as §1
binder,measurement,setting,value
"Flo1 (Saccharomyces cerevisiae), P32768 (protein) SGATEACLPAGQRKSGMNINFYQYSLKDSSTYSNAAYMAYGYASKTKLGSVGGQTDISIDYNIPCVSSSGTFPCPQEDSYGNWGCKGMGACSNSQGIAYWSTDLFGFYTTPTNVTLEMTGYFLPPQTGSYTFKFATVDDSAILSVGGATAFNCCAQQQPPITSTNFTIDGIKPWGGSLPPNIEGTVYMYAGYYYPMKVVYSNAVSWGTLPISVTLPDGTTVSDDFEGYVYSFDDDLSQSNCTVPDPSNY",glycan array binding signal (z-score),[1],-0.583
same,glycan array binding signal (z-score),[2],-0.202
same,glycan array binding signal (z-score),[3],-0.008
same,glycan array binding signal (z-score),[4],0.208
same,glycan array binding signal (z-score),[5],-0.643
same,glycan array binding signal (z-score),[6],-0.466
same,glycan array binding signal (z-score),[7],-0.618
same,glycan array binding signal (z-score),[8],-0.164
same,glycan array binding signal (z-score),[9],-2.82
same,glycan array binding signal (z-score),[10],-0.353
same,glycan array binding signal (z-score),[11],-0.886
same,glycan array binding signal (z-score),[12],-0.36
same,glycan array binding signal (z-score),[13],-0.234
same,glycan array binding signal (z-score),[14],0.176
same,glycan array binding signal (z-score),[15],-0.117
same,glycan array binding signal (z-score),[16],-0.236
same,glycan array binding signal (z-score),[17],-0.704
same,glycan array binding signal (z-score),[18],-0.731
same,glycan array binding signal (z-score),[19],-0.479
same,glycan array binding signal (z-score),[20],-0.024
same,glycan array binding signal (z-score),[21],-0.808
same,glycan array binding signal (z-score),[22],-0.449
same,glycan array binding signal (z-score),[23],-0.198
same,glycan array binding signal (z-score),[24],1.56
same,glycan array binding signal (z-score),[25],0.682
same,glycan array binding signal (z-score),[26],0.305
same,glycan array binding signal (z-score),[27],-0.226
same,glycan array binding signal (z-score),[28],-0.081
same,glycan array binding signal (z-score),[29],-0.261
same,glycan array binding signal (z-score),[30],-0.389
same,glycan array binding signal (z-score),[31],0.403
same,glycan array binding signal (z-score),[32],-0.348
same,glycan array binding signal (z-score),[33],0.251
same,glycan array binding signal (z-score),[34],0.743
same,glycan array binding signal (z-score),[35],0.13
same,glycan array binding signal (z-score),[36],-0.031
same,glycan array binding signal (z-score),[37],1.16
same,glycan array binding signal (z-score),[38],-0.65
same,glycan array binding signal (z-score),[39],0.634
same,glycan array binding signal (z-score),[40],-0.463
same,glycan array binding signal (z-score),[41],-0.237
same,glycan array binding signal (z-score),[42],-0.52
same,glycan array binding signal (z-score),[43],0.09
same,glycan array binding signal (z-score),[44],-0.334
same,glycan array binding signal (z-score),[45],0.698

# Reformatted tab-delimited: entries from further up
binder	measurement	setting	value
Flo1 (Saccharomyces cerevisiae), P32768 (protein) SGATEACLPAGQRKSGMNINFYQYSLKDSSTYSNAAYMAYGYASKTKLGSVGGQTDISIDYNIPCVSSSGTFPCPQEDSYGNWGCKGMGACSNSQGIAYWSTDLFGFYTTPTNVTLEMTGYFLPPQTGSYTFKFATVDDSAILSVGGATAFNCCAQQQPPITSTNFTIDGIKPWGGSLPPNIEGTVYMYAGYYYPMKVVYSNAVSWGTLPISVTLPDGTTVSDDFEGYVYSFDDDLSQSNCTVPDPSNY	glycan array binding signal (z-score)	[9]	-2.82
same	glycan array binding signal (z-score)	[28]	-0.081
same	glycan array binding signal (z-score)	[35]	0.13
